Structures can show the parent of a compound that is named as a salt.
Tests used:
[1] = test system: MDA-MB-231 mammary carcinoma; experiment: Antitumor efficacy in MDA-MB-231 mammary carcinoma model in nude mice; type: in vivo; conditions: Table 7, i.v. Q2D3 × 3 W
NCI-H460 lung carcinoma = experiment: Antitumor efficacy in NCI-H460 lung carcinoma model in nude mice; conditions: for Day when minimal T/C is reached: Table 7, i.v. Q2D3 × 3 W
[2] = test system: HT-29 colorectal carcinoma; experiment: Antitumor efficacy in HT-29 colorectal carcinoma model in nude mice; type: in vivo; conditions: Table 7
[3] = test system: LS 174T human colorectal carcinoma tumor; experiment: Antitumor efficacy in human LS 174T xenograft colon tumor model implanted in nude rats; type: in vivo; conditions: Table 7
Procedure: The LS 174T study was performed using female nude rats (8 weeks old) purchased from Harlan breeding center (Gannat, France). LS 174T tumors were established by a subcutaneously implantation of cell (ATCC Number: CCl-188) suspensions in the right flank of the animals. The first injection of drugs was performed when the tumors reached a size of about 1000 mm^3. The tumor volume was calculated using the following formula: [length×width^2]/2.

Compound | Day when minimal T/C is reached ([1]; 12.5 μmol/kg) [days] | Day when minimal T/C is reached ([1]; 25 μmol/kg) [days] | Day when minimal T/C is reached (NCI-H460 lung carcinoma; 12.5 μmol/kg) [days] | Day when minimal T/C is reached (NCI-H460 lung carcinoma; 25 μmol/kg) [days] | Day when minimal T/C is reached ([2]; i.v. Q4D × 3, 12.5 μmol/kg) [days] | Day when minimal T/C is reached ([2]; i.v. Q4D × 3, 25 μmol/kg) [days] | Day when minimal T/C is reached ([3]; i.v. Q4D × 5, 10 μmol/kg) [days] | Day when minimal T/C is reached ([3]; i.v. Q4D × 5, 20 μmol/kg) [days] | In vivo efficacy Optimal T/C (NCI-H460 lung carcinoma; Table 9, 25 μmol/kg) [days]
CCc1c2c(nc3ccc(OC(=O)[C@H]4CC[C@H](CNC(=O)C5CCC(CN6C(=O)CC(SC[C@H](N)C(=O)N[C@H](C(=O)N[C@@H](CCCCN)C(=O)N[C@@H](CCCNC(=N)N)C(=O)NCC(=O)N[C@@H](CC(C)C)C(=O)N[C@@H](CCCCN)C(=O)N[C@@H](CC(C)C)C(=O)N[C@@H](CCCNC(=N)N)C(=O)N[C@@H](Cc7c[nH]cn7)C(=O)N[C@H](C(=O)N[C@@H](CCCNC(=N)N)C(=O)N7CCC[C@H]7C(=O)N[C@@H](CCCNC(=N)N)C(=O)N[C@H](C(=O)N[C@H](C(=O)N[C@@H](CCCNC(=N)N)C(=O)N[C@@H](CCSC)C(=O)N[C@@H](CC(=O)O)C(=O)N[C@H](C(=O)O)C(C)C)[C@@H](C)O)C(C)C)C(C)C)C(C)C)C6=O)CC5)CC4)cc13)-c1cc3c(c(=O)n1C2)COC(=O)[C@]3(O)CC (single isomer, unassigned) [DPV1047-BCH-SN38] | 58 | 51 | 24 | 24 | 38 | 31 | 35 | 35 | 
CCc1c2c(nc3ccc(OC(=O)[C@H]4CC[C@H](CNC(=O)C5CCC(CN6C(=O)CC(SC[C@H](N)C(=O)N[C@H](C(=O)N[C@@H](CCCCN)C(=O)N[C@@H](CCCNC(=N)N)C(=O)NCC(=O)N[C@@H](CC(C)C)C(=O)N[C@@H](CCCCN)C(=O)N[C@@H](CC(C)C)C(=O)N[C@@H](CCCNC(=N)N)C(=O)N[C@@H](Cc7c[nH]cn7)C(=O)N[C@H](C(=O)N[C@@H](CCCNC(=N)N)C(=O)N7CCC[C@H]7C(=O)N[C@@H](CCCNC(=N)N)C(=O)N[C@H](C(=O)N[C@H](C(=O)N[C@@H](CCCNC(=N)N)C(=O)N[C@@H](CCSC)C(=O)N[C@@H](CC(=O)O)C(=O)N[C@H](C(=O)O)C(C)C)[C@@H](C)O)C(C)C)C(C)C)C(C)C)C6=O)CC5)CC4)cc13)-c1cc3c(c(=O)n1C2)COC(=O)[C@]3(O)CC (single isomer, unassigned) [DPV1047-BCH-SN38•HCl] |  |  |  |  |  |  |  |  | 24

From US8410045B2, “Camptothecin-peptide conjugates and pharmaceutical compositions containing the same” (Drais Pharmaceuticals, Inc., priority 2006, dated 2013)
